# Cleaved PARP in drug-treated melanoma cells

From a melanoma drug combination screen (doi:10.1371/journal.pone.0140310); values rounded.

Drugs:
NVP-TAE684 (0.4 µM): COc1cc(N2CCC(N3CCN(C)CC3)CC2)ccc1Nc1ncc(Cl)c(Nc2ccccc2S(=O)(=O)C(C)C)n1
LFM-A13 (10 µM): C/C(O)=C(\C#N)C(=O)Nc1cc(Br)ccc1Br
tozasertib (0.03 µM): Cc1cc(Nc2cc(N3CCN(C)CC3)nc(Sc3ccc(NC(=O)C4CC4)cc3)n2)n[nH]1
TCS401 (8.33 µM): O=C(O)C(=O)Nc1sc2c(c1C(=O)O)CCNC2
perifosine (2 µM): CCCCCCCCCCCCCCCCCCOP(=O)([O-])OC1CC[N+](C)(C)CC1
VX-702 (2 µM): NC(=O)c1ccc(N(C(N)=O)c2c(F)cccc2F)nc1-c1ccc(F)cc1F
ZM336372 (10 µM): Cc1ccc(NC(=O)c2cccc(N(C)C)c2)cc1NC(=O)c1ccc(O)cc1
nilotinib (1 µM): Cc1cn(-c2cc(NC(=O)c3ccc(C)c(Nc4nccc(-c5cccnc5)n4)c3)cc(C(F)(F)F)c2)cn1
lestaurtinib (0.02 µM): C[C@]12O[C@H](C[C@]1(O)CO)n1c3ccccc3c3c4c(c5c6ccccc6n2c5c31)CNC4=O

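Human melanoma cells were exposed to two drugs together for 72 h in 1,536-well plates and read by automated microscopy after fixing and staining. Values are the share of nuclei positive for cleaved PARP as a percentage of the same share in the DMSO control: 100 is the control level, higher means more apoptosis. Concentrations were fixed for each drug; these are the higher of two levels. No replicate spread is given; individual values may be noisy. The marker varies much from line to line, for technical or biological reasons.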
An unselected part of the screen is shown.
An entry leaves out what has no value listed here.

{"drugs": "VX-702 + LFM-A13", "MEL-HO": 85.6, "LOX IMVI": 86.7, "SK-MEL-2": 76.0, "SK-MEL-30": 137, "RVH-421": 84.8, "UACC-257": 27.8}
{"drugs": "VX-702 + TCS401", "MEL-HO": 135, "LOX IMVI": 42.3, "SK-MEL-2": 179, "SK-MEL-30": 118, "RVH-421": 118, "UACC-257": 42.4}
{"drugs": "VX-702 + perifosine", "MEL-HO": 116, "LOX IMVI": 40.0, "SK-MEL-2": 121, "SK-MEL-30": 143, "RVH-421": 28.3, "UACC-257": 159}
{"drugs": "lestaurtinib + ZM336372", "MEL-HO": 165, "LOX IMVI": 1650, "SK-MEL-2": 173, "SK-MEL-30": 49.4, "RVH-421": 75.9, "UACC-257": 384}
{"drugs": "TCS401 + LFM-A13", "MEL-HO": 52.7, "LOX IMVI": 156, "SK-MEL-2": 90.1, "SK-MEL-30": 107, "RVH-421": 176, "UACC-257": 24.2}
{"drugs": "ZM336372 + TCS401", "MEL-HO": 150, "LOX IMVI": 91.4, "SK-MEL-2": 103, "SK-MEL-30": 61.5, "RVH-421": 79.3, "UACC-257": 40.3}
{"drugs": "tozasertib + VX-702", "MEL-HO": 184, "LOX IMVI": 53.5, "SK-MEL-2": 91.5, "SK-MEL-30": 120, "RVH-421": 59.7, "UACC-257": 86.0}
{"drugs": "VX-702 + lestaurtinib", "MEL-HO": 95.7, "LOX IMVI": 155, "SK-MEL-2": 132, "SK-MEL-30": 110, "RVH-421": 113, "UACC-257": 64.7}
{"drugs": "LFM-A13 + tozasertib", "MEL-HO": 122, "LOX IMVI": 261, "SK-MEL-2": 78.1, "SK-MEL-30": 87.1, "RVH-421": 111, "UACC-257": 96.0}
{"drugs": "ZM336372 + LFM-A13", "MEL-HO": 92.9, "LOX IMVI": 70.7, "SK-MEL-2": 83.1, "SK-MEL-30": 88.2, "RVH-421": 132, "UACC-257": 53.4}
{"drugs": "nilotinib + perifosine", "MEL-HO": 114, "LOX IMVI": 89.6, "SK-MEL-2": 83.9, "SK-MEL-30": 93.5, "RVH-421": 50.9, "UACC-257": 39.8}
{"drugs": "VX-702 + ZM336372", "MEL-HO": 76.0, "LOX IMVI": 72.1, "SK-MEL-2": 148, "SK-MEL-30": 59.6, "RVH-421": 100, "UACC-257": 72.5}
{"drugs": "tozasertib + NVP-TAE684", "MEL-HO": 70.9, "LOX IMVI": 81.2, "SK-MEL-2": 148, "SK-MEL-30": 102, "RVH-421": 52.4, "UACC-257": 71.0}
{"drugs": "NVP-TAE684 + LFM-A13", "MEL-HO": 102, "LOX IMVI": 89.4, "SK-MEL-2": 153, "SK-MEL-30": 44.1, "RVH-421": 173, "UACC-257": 94.3}
{"drugs": "perifosine + LFM-A13", "MEL-HO": 80.1, "LOX IMVI": 141, "SK-MEL-2": 93.6, "SK-MEL-30": 76.4, "RVH-421": 97.0, "UACC-257": 32.5}
{"drugs": "tozasertib + perifosine", "MEL-HO": 158, "LOX IMVI": 95.5, "SK-MEL-2": 99.0, "SK-MEL-30": 52.5, "RVH-421": 46.9, "UACC-257": 92.1}
{"drugs": "perifosine + ZM336372", "MEL-HO": 76.7, "LOX IMVI": 295, "SK-MEL-2": 124, "SK-MEL-30": 30.5, "RVH-421": 223, "UACC-257": 245}
{"drugs": "perifosine + TCS401", "MEL-HO": 169, "LOX IMVI": 62.2, "SK-MEL-2": 137, "SK-MEL-30": 139, "RVH-421": 128, "UACC-257": 64.7}
{"drugs": "tozasertib + ZM336372", "MEL-HO": 82.4, "LOX IMVI": 88.6, "SK-MEL-2": 106, "SK-MEL-30": 78.5, "RVH-421": 207, "UACC-257": 44.6}
{"drugs": "tozasertib + nilotinib", "MEL-HO": 42.5, "LOX IMVI": 193, "SK-MEL-2": 150, "SK-MEL-30": 77.2, "RVH-421": 66.2, "UACC-257": 36.5}
{"drugs": "ZM336372 + nilotinib", "MEL-HO": 72.6, "LOX IMVI": 134, "SK-MEL-2": 83.3, "SK-MEL-30": 43.0, "RVH-421": 147, "UACC-257": 63.2}
{"drugs": "lestaurtinib + TCS401", "MEL-HO": 79.0, "LOX IMVI": 104, "SK-MEL-2": 67.4, "SK-MEL-30": 35.7, "RVH-421": 181, "UACC-257": 83.4}
{"drugs": "NVP-TAE684 + VX-702", "MEL-HO": 80.5, "LOX IMVI": 94.4, "SK-MEL-2": 177, "SK-MEL-30": 53.2, "RVH-421": 16.8, "UACC-257": 33.4}
{"drugs": "lestaurtinib + nilotinib", "MEL-HO": 46.1, "LOX IMVI": 111, "SK-MEL-2": 134, "SK-MEL-30": 66.7, "RVH-421": 168, "UACC-257": 24.5}
{"drugs": "TCS401 + NVP-TAE684", "MEL-HO": 46.9, "LOX IMVI": 125, "SK-MEL-30": 69.1, "RVH-421": 76.3, "UACC-257": 31.8}
{"drugs": "LFM-A13 + lestaurtinib", "MEL-HO": 87.1, "LOX IMVI": 163, "SK-MEL-2": 149, "SK-MEL-30": 120, "RVH-421": 21.1, "UACC-257": 137}
{"drugs": "nilotinib + NVP-TAE684", "MEL-HO": 91.1, "LOX IMVI": 198, "SK-MEL-2": 194, "SK-MEL-30": 79.6, "RVH-421": 113, "UACC-257": 30.8}
{"drugs": "tozasertib + lestaurtinib", "MEL-HO": 118, "LOX IMVI": 124, "SK-MEL-2": 156, "SK-MEL-30": 146, "RVH-421": 201, "UACC-257": 28.7}
{"drugs": "tozasertib + TCS401", "MEL-HO": 440, "LOX IMVI": 95.1, "SK-MEL-2": 113, "SK-MEL-30": 46.4, "RVH-421": 41.6, "UACC-257": 21.3}
{"drugs": "nilotinib + LFM-A13", "MEL-HO": 92.2, "LOX IMVI": 163, "SK-MEL-2": 75.0, "SK-MEL-30": 75.9, "RVH-421": 135, "UACC-257": 26.8}
{"drugs": "NVP-TAE684 + ZM336372", "MEL-HO": 101, "LOX IMVI": 52.4, "SK-MEL-2": 293, "SK-MEL-30": 156, "RVH-421": 78.6, "UACC-257": 99.5}

Once more, the final 3:

Drugs,MEL-HO,LOX IMVI,SK-MEL-2,SK-MEL-30,RVH-421,UACC-257
tozasertib + TCS401,440,95.1,113,46.4,41.6,21.3
nilotinib + LFM-A13,92.2,163,75.0,75.9,135,26.8
NVP-TAE684 + ZM336372,101,52.4,293,156,78.6,99.5